From US20130129763A1 (ARNE FORSGREN, published 2013)

Chains of the proteins cited; added tags and fusions are not shown. Residues count along the entry.
UniProt P19137, 25-3083 limits assumed, chain 1 of 3: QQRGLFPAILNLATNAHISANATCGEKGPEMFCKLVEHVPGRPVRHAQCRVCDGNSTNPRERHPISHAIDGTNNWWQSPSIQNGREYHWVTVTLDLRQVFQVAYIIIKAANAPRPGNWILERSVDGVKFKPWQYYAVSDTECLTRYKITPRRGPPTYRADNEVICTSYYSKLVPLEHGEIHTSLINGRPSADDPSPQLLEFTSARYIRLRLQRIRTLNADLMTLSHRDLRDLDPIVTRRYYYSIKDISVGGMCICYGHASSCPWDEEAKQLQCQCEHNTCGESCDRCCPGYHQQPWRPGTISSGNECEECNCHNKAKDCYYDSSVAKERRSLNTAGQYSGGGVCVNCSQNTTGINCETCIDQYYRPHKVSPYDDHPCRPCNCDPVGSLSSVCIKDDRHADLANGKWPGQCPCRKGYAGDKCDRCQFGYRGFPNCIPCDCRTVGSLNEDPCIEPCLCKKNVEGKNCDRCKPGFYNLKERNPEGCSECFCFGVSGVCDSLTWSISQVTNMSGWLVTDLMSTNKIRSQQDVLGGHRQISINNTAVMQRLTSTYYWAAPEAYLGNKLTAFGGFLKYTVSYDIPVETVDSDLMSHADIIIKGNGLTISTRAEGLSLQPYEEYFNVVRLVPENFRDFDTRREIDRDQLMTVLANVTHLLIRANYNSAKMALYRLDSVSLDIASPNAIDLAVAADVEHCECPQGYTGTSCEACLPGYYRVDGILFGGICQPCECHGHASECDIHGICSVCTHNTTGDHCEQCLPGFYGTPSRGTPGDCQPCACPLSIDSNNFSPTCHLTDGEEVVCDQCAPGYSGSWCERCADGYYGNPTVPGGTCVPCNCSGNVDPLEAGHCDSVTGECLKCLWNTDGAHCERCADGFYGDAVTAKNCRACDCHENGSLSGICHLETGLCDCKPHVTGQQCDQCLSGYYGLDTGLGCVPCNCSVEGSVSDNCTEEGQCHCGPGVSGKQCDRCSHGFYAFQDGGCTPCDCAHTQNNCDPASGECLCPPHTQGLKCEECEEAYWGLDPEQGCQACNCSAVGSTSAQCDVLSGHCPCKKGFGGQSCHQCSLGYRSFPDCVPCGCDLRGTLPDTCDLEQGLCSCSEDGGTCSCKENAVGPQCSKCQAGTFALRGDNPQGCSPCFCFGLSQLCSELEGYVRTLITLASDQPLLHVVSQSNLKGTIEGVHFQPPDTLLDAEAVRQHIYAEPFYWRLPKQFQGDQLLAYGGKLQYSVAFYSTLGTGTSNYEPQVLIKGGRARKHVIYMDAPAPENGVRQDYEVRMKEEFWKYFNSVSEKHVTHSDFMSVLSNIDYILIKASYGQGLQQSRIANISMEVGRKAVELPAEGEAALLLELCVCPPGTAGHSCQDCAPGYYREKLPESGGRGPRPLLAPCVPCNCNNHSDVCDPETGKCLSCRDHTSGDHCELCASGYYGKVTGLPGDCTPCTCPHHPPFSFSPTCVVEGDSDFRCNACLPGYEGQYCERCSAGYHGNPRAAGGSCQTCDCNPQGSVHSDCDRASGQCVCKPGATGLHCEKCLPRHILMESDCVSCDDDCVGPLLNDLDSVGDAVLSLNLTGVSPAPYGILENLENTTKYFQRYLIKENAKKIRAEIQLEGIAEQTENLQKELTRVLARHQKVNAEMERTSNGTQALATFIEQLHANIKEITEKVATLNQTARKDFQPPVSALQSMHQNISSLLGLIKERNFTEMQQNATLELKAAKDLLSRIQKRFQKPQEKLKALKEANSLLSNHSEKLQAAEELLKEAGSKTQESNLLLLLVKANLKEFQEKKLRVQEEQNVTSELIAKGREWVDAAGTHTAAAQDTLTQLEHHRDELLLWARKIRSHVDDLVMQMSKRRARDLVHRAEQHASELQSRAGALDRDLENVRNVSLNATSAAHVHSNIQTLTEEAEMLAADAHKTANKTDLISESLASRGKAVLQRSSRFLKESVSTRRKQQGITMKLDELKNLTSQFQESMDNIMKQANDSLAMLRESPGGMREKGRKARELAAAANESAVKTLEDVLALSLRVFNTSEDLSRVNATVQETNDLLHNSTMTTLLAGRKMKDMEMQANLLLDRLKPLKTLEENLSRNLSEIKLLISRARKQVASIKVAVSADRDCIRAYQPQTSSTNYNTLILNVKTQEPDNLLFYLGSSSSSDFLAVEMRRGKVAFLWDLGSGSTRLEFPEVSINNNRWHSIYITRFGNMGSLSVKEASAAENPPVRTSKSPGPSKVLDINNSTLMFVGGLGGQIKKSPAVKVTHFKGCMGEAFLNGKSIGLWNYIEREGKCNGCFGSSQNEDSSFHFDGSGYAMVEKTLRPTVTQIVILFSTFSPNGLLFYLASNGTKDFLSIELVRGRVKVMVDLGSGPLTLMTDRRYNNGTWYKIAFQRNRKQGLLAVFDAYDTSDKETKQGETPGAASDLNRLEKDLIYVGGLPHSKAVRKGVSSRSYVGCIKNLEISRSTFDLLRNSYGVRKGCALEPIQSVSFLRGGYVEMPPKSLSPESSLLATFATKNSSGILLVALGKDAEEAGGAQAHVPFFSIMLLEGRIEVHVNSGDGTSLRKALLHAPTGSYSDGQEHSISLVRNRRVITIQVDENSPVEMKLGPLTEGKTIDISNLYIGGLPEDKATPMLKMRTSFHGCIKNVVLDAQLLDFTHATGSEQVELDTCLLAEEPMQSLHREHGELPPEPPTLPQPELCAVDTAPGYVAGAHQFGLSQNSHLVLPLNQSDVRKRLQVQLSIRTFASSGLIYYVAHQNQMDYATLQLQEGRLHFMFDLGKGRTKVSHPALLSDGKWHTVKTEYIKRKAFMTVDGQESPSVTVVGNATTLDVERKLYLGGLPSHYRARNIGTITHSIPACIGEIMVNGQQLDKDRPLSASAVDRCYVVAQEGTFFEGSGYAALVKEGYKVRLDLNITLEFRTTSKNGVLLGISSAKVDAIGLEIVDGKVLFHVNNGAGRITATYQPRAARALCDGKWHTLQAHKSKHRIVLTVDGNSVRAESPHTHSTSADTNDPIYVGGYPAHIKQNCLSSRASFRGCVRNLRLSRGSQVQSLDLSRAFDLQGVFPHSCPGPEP
Engelbreth-Holm-Swarm mouse sarcoma laminin (Sigma), UniProt P02469, 22-1786 limits assumed, chain 2 of 3: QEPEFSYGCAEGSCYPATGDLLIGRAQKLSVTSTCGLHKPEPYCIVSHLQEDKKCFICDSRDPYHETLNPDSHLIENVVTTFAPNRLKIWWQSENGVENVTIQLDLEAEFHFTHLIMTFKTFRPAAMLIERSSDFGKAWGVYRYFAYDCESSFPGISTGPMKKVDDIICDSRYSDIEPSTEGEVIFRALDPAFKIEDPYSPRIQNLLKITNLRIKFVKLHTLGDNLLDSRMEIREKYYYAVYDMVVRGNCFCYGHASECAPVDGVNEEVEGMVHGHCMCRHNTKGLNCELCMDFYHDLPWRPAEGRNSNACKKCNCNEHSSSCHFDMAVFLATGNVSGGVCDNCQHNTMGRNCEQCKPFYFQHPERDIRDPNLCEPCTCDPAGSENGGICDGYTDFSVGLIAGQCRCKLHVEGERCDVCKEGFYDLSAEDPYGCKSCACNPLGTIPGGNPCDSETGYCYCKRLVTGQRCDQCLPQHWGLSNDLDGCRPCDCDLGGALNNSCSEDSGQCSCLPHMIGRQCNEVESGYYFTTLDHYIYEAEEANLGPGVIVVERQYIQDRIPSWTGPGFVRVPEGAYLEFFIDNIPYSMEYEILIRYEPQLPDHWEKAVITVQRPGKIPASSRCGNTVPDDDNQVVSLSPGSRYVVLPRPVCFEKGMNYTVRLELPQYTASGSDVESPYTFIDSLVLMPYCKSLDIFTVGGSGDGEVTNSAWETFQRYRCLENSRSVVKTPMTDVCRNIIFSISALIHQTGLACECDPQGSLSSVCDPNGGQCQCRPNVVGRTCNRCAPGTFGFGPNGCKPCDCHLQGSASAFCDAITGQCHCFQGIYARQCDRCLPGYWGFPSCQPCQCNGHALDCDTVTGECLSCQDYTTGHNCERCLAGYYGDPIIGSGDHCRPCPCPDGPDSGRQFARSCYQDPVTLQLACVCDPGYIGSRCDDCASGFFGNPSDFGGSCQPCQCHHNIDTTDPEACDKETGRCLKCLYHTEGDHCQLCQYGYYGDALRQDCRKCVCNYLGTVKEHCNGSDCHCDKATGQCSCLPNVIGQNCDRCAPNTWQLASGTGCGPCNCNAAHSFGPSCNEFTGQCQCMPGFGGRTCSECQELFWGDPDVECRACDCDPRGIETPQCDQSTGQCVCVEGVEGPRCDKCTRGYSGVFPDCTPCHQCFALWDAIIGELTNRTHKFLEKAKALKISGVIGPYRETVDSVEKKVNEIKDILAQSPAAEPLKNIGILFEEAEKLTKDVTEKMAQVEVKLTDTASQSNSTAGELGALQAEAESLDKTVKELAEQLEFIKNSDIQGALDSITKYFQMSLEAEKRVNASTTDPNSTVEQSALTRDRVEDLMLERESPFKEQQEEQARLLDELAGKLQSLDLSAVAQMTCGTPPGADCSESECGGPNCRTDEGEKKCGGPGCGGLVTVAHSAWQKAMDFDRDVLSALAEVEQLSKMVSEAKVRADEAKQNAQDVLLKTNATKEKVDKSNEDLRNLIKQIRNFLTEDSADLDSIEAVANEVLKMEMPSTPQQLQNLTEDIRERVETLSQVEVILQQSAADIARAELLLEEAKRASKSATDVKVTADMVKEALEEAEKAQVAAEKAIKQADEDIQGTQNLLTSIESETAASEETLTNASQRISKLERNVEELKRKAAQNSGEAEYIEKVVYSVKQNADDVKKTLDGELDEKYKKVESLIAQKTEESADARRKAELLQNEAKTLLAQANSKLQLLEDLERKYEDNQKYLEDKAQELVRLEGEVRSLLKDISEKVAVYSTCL
Engelbreth-Holm-Swarm mouse sarcoma laminin (Sigma), UniProt P02468, 34-1607 limits assumed, chain 3 of 3: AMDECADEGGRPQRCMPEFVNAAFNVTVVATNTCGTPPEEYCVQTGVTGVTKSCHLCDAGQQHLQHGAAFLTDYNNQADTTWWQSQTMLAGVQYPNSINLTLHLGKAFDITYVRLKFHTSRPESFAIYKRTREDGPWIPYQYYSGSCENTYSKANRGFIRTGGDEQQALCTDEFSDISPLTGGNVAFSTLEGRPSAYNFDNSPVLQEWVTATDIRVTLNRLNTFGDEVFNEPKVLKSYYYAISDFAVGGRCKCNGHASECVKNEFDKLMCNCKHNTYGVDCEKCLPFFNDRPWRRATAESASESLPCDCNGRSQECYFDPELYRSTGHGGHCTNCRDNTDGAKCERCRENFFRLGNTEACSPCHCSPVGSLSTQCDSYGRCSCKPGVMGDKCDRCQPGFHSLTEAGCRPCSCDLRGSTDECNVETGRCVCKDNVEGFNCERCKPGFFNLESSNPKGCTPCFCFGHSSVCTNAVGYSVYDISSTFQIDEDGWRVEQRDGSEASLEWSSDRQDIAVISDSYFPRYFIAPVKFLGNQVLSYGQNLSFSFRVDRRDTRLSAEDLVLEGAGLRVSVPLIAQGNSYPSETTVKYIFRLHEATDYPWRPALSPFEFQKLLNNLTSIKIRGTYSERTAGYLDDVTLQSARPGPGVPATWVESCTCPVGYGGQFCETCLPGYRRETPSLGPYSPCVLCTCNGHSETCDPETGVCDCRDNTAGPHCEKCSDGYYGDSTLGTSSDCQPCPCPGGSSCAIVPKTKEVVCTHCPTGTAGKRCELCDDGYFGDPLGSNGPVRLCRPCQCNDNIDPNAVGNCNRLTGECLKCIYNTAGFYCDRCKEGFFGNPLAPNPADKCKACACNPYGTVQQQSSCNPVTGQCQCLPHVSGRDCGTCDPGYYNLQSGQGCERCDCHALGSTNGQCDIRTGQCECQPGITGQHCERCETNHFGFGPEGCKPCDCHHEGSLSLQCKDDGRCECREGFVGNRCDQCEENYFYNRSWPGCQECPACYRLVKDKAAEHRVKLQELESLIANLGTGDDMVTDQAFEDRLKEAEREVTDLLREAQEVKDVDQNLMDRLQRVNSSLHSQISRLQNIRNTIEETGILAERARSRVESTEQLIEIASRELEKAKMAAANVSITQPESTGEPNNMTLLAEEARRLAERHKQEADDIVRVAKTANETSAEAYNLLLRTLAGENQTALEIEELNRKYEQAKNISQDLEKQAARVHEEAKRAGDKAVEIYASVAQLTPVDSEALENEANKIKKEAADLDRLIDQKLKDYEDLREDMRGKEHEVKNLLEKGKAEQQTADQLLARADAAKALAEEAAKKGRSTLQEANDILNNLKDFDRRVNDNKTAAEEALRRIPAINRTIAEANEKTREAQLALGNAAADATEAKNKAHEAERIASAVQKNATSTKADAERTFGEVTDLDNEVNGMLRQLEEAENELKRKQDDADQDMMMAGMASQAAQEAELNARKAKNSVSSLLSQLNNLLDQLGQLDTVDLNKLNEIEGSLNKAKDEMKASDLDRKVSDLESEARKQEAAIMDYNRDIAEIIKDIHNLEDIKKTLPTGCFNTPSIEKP

Biological target: T1, Engelbreth-Holm-Swarm mouse sarcoma laminin (Sigma) (mouse, UniProt P19137 25-3083; P02469 22-1786; P02468 34-1607)
T1 construct: also called soluble laminin
Experiment: ELISA: 40 nM protein coated, laminin 20 µg/ml, rabbit anti-laminin pAb + HRP anti-rabbit pAb

B1: recombinant UspA1^299-452 (other)
chain: KTGNGTVSVGKKGKERQIVHVGAGEISDTSTDAVNGSQLHVLATVVAQNKADIKDLDDEVGLLGEEINSLEGEIFNNQDAIAKNQADIKTLESNVEEGLLDLSGRLLDQKADIDNNINNIYELAQQQDQHSSDIKTLKNNVEEGLLDLSGRLID
Question: Does B1 bind?
Answer: no binding
